Source: the supplement of paper PMC10331698
± gives the standard deviation of the averaged measurements. Most values lie at the level of the controls, where differences are scatter.

What was measured:
Assay in all cases: level (log10 ratio to DMSO vehicle control); higher = higher biomarker level / cell amount than vehicle control
[1] = compound: C=C(C)C(=O)OCCC(F)(F)C(F)(F)C(F)(F)C(F)(F)C(F)(F)C(F)(F)F [6:2 Fluorotelomer methacrylate] (in DMSO); settings: 2200 nM
Method: (§1)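 BioMAP Diversity Plus panel of 12 human primary cell co-culture systems (3C, 4H, LPS, SAg, BT, BF4T, BE3C, CASM3C, HDF3CGF, KF3CT, MyoF, Mphg). Compounds were added 1 h before stimulation and left for 24 h (MyoF 48 h; BT 72 h for soluble read-outs or 6 d for IgG). Biomarkers were read by ELISA, cytotoxicity by SRB, PBMC viability and proliferation by Alamar Blue. Each well value was divided by the mean of 8 DMSO control wells on the same plate and log10 transformed; duplicate blinded samples were tested at 4 concentrations.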

[2] = compound: CNS(=O)(=O)C(F)(F)C(F)(F)C(F)(F)C(F)(F)C(F)(F)C(F)(F)C(F)(F)C(F)(F)F [N-Methylperfluorooctanesulfonamide] (in DMSO); settings: 2200 nM
Method: as §1

[3] = compound: FC(F)(F)C(F)(F)C(F)(F)C(F)(F)CCI [1H,1H,2H,2H-Perfluorohexyl iodide] (in DMSO); settings: 2200 nM
Method: as §1

[4] = compound: FC(F)(F)C(F)(F)CNCC(F)(F)C(F)(F)F [Bis(1H,1H-perfluoropropyl)amine] (in DMSO); settings: 2200 nM
Method: as §1

[5] = compound: FC(F)(F)COC(OCC(F)(F)F)OCC(F)(F)F [tris(Trifluoroethoxy)methane] (in DMSO); settings: 2200 nM
Method: as §1

Hexafluoroglutaric acid = compound: O=C(O)C(F)(F)C(F)(F)C(F)(F)C(=O)O [Hexafluoroglutaric acid] (in DMSO)
Method: as §1

Perfluorohexanoic acid = compound: O=C(O)C(F)(F)C(F)(F)C(F)(F)C(F)(F)C(F)(F)F [Perfluorohexanoic acid] (in DMSO)
Method: as §1

[6] = compound: O=C(O)C(F)(F)C(F)(F)C(F)(F)OC(F)(C(F)(F)F)C(F)(F)F [Perfluoro-4-isopropoxybutanoic acid] (in DMSO); settings: 2200 nM
Method: as §1

[7] = compound: O=C(O)C(F)(OC(F)(F)C(F)(F)C(F)(F)F)C(F)(F)F [Ammonium perfluoro-2-methyl-3-oxahexanoate] (in Water)
Method: as §1

[8] = compound: O=C(O)C(F)(OC(F)(F)C(F)(OC(F)(F)C(F)(OC(F)(F)C(F)(F)C(F)(F)F)C(F)(F)F)C(F)(F)F)C(F)(F)F [Perfluoro-(2,5,8-trimethyl-3,6,9-trioxadodecanoic)acid] (in DMSO); settings: 370 nM
Method: as §1

[9] = compound: O=C(O)CCC(F)(F)C(F)(F)C(F)(F)F [3:3 Fluorotelomer carboxylic acid] (in DMSO); settings: 2200 nM
Method: as §1

[10] = compound: O=S(=O)(O)C(F)(F)C(F)(F)C(F)(F)C(F)(F)F [Perfluorobutanesulfonic acid] (in DMSO)
Method: as §1

[11] = compound: OCC(F)(F)C(F)(F)C(F)(F)C(F)(F)C(F)(F)C(F)(F)CO [1H,1H,8H,8H-Perfluorooctane-1,8-diol] (in DMSO); settings: 2200 nM
Method: as §1

[12] = compound: OCC(F)(F)C(F)(F)C(F)(F)C(F)(F)C(F)(F)C(F)(F)F [6:1 Fluorotelomer alcohol] (in DMSO); settings: 2200 nM
Method: as §1

[13] = compound: OCC(F)(F)C(F)(F)C(F)(F)C(F)F [1H,1H,5H-Perfluoropentanol] (in DMSO); settings: 2200 nM
Method: as §1

[14] = compound: OCC(F)(F)OC(F)(F)C(F)(F)OC(F)(F)CO [1H,1H,8H,8H-Perfluoro-3,6-dioxaoctane-1,8-diol] (in DMSO); settings: 2200 nM
Method: as §1

[15] = compound: OCCCC(F)(F)C(F)(F)C(F)(F)C(F)(F)C(F)(F)C(F)(F)C(F)(F)C(F)(F)F [3-(Perfluorooctyl)propanol] (in DMSO); settings: 2200 nM
Method: as §1

| Test System | level (log10) [1] | level (log10) [2] | level (log10) [3] | level (log10) [4] | level (log10) [5] | level (log10) (Hexafluoroglutaric acid; 2200 nM) | level (log10) (Hexafluoroglutaric acid; 6700 nM) | level (log10) (Hexafluoroglutaric acid; 20000 nM) | level (log10) (Hexafluoroglutaric acid; 60000 nM) | level (log10) (Perfluorohexanoic acid; 2200 nM) | level (log10) (Perfluorohexanoic acid; 6700 nM) | level (log10) (Perfluorohexanoic acid; 20000 nM) | level (log10) (Perfluorohexanoic acid; 60000 nM) | level (log10) [6] | level (log10) ([7]; 2200 nM) | level (log10) ([7]; 6700 nM) | level (log10) ([7]; 20000 nM) | level (log10) ([7]; 60000 nM) | level (log10) [8] | level (log10) [9] | level (log10) ([10]; 2200 nM) | level (log10) ([10]; 6700 nM) | level (log10) ([10]; 20000 nM) | level (log10) ([10]; 60000 nM) | level (log10) [11] | level (log10) [12] | level (log10) [13] | level (log10) [14] | level (log10) [15] |
| --- | --- | --- | --- | --- | --- | --- | --- | --- | --- | --- | --- | --- | --- | --- | --- | --- | --- | --- | --- | --- | --- | --- | --- | --- | --- | --- | --- | --- | --- |
| BF4T:Keratin 8/18 | -0.0105 ± 0.0092 | -0.0165 ± 0.015 | -0.003 ± 0.021 | 0.028 ± 0.024 | 0.02 ± 0.04 | 0.0035 ± 0.06 | -0.006 ± 0.013 | -0.0145 ± 0.015 | 0.0005 ± 0.00071 | 0.012 ± 0.0085 | 0.017 ± 0.028 | 0.0165 ± 0.015 | -0.006 ± 0.037 | 0.0055 ± 0.015 | -0.006 ± 0.037 | -0.0205 ± 0.0078 | -0.008 ± 0.035 | -0.022 ± 0.014 | 0.024 ± 0.0042 | 0.009 ± 0.017 | -0.0225 ± 0.032 | -0.0245 ± 0.028 | -0.0145 ± 0.011 | -0.0045 ± 0.015 | -0.0125 ± 0.035 | 0.0175 ± 0.016 | -0.0225 ± 0.015 | 0.013 ± 0.0042 | 0.0025 ± 0.03 |
| KF3CT:TIMP-2 | 0.0035 ± 0.025 | -0.011 ± 0.011 | -0.016 ± 0.0042 | 0.0115 ± 0.0035 | 0.009 ± 0.014 | -0.013 ± 0.0042 | -0.026 ± 0.014 | -0.028 ± 0.0042 | -0.013 ± 0.011 | -0.0165 ± 0.013 | 0.004 ± 0.016 | -0.0125 ± 0.0035 | -0.0125 ± 0.0078 | 0.002 ± 0.0028 | 0.0075 ± 0.025 | -0.0005 ± 0.037 | -0.002 ± 0.025 | 0.022 ± 0.027 | -0.0085 ± 0.03 | 0.0065 ± 0.028 | -0.0085 ± 0.035 | -0.0265 ± 0.005 | -0.0045 ± 0.029 | -0.0135 ± 0.022 | -0.007 ± 0.061 | -0.015 ± 0.014 | -0.011 ± 0.0014 | 0.011 ± 0.017 | -0.0155 ± 0.064 |
| MyoF:SRB | 0.0015 ± 0.0092 | 0.0125 ± 0.015 | 0.008 ± 0.0085 | 0.001 ± 0.018 | 0.003 ± 0.0085 | 0 ± 0.0042 | 0.0015 ± 0.00071 | -0.002 ± 0.0085 | -0.0045 ± 0.0092 | -0.013 ± 0.0028 | 0.009 ± 0.0014 | 0.008 ± 0.0085 | 0.007 ± 0.0057 | 0.0065 ± 0.013 | 0.01 ± 0.017 | 0.0095 ± 0.0035 | 0.013 ± 0.013 | 0.0085 ± 0.0035 | 0.0075 ± 0.029 | 0.006 ± 0.011 | -0.002 ± 0.0014 | -0.002 ± 0.0071 | -0.0035 ± 0.00071 | 0.0085 ± 0.00071 | -0.004 ± 0.0042 | 0.01 ± 0.017 | 0.008 ± 0.0085 | -0.0015 ± 0.013 | 0.0035 ± 0.013 |
| MyoF:bFGF | -0.0015 ± 0.015 | 0.014 ± 0.0042 | 0.0025 ± 0.005 | -0.0105 ± 0.019 | -0.0095 ± 0.0092 | 0.006 ± 0.023 | 0.01 ± 0.014 | 0.0105 ± 0.013 | 0.017 ± 0.0014 | 0.0055 ± 0.0021 | 0.0005 ± 0.005 | -0.0105 ± 0.019 | 0.0005 ± 0.021 | 0.001 ± 0.0071 | 0.001 ± 0.013 | 0.017 ± 0.0099 | 0.006 ± 0.0014 | 0.0005 ± 0.0092 | 0.007 ± 0.023 | 0.006 ± 0.013 | 0.017 ± 0.0085 | 0.0065 ± 0.013 | 0.0105 ± 0.018 | -0.0065 ± 0.0064 | 0.0055 ± 0.0092 | -0.005 ± 0.0042 | -0.016 ± 0.0042 | 0.014 ± 0.017 | 0.0065 ± 0.0035 |
| 3C:CD54/ICAM-1 | -0.004 ± 0.0085 | -0.0035 ± 0.012 | -0.0085 ± 0.026 | 0.0075 ± 0.0078 | -0.003 ± 0.011 | -0.0045 ± 0.032 | -0.0125 ± 0.018 | -0.0165 ± 0.019 | -0.0175 ± 0.018 | 0.0085 ± 0.018 | 0.005 ± 0.013 | -0.0045 ± 0.016 | -0.0005 ± 0.019 | 0 ± 0.0099 | 0.006 ± 0.0071 | -0.0255 ± 0.0092 | 0.0065 ± 0.00071 | 0.0055 ± 0.011 | 0.006 ± 0.021 | -0.0275 ± 0.011 | -0.002 ± 0.0071 | -0.008 ± 0.0014 | 0.0035 ± 0.0021 | 0.0015 ± 0.0021 | 0.016 ± 0.03 | 0.0115 ± 0.018 | -0.002 | -0.0155 ± 0.0064 | 0.011 ± 0.05 |
| 3C:CD141/Thrombomodulin | -0.0105 ± 0.028 | 0.0035 ± 0.021 | -0.017 ± 0.059 | 0.0375 ± 0.0078 | -0.001 ± 0.05 | -0.011 ± 0.02 | -0.018 ± 0.017 | -0.014 ± 0.011 | -0.034 ± 0.0099 | 0 ± 0.02 | -0.0205 ± 0.005 | -0.022 ± 0.027 | -0.006 | -0.0265 ± 0.019 | -0.027 ± 0.048 | -0.0395 ± 0.03 | -0.0315 ± 0.011 | -0.057 ± 0.0028 | -0.014 ± 0.03 | -0.01 ± 0.033 | -0.0155 ± 0.061 | -0.0185 ± 0.049 | -0.019 ± 0.0085 | -0.054 ± 0.0085 | 0.007 ± 0.017 | -0.009 ± 0.0042 | 0.005 ± 0.0014 | -0.01 ± 0.031 | -0.0035 ± 0.013 |
| BF4T:CD54/ICAM-1 | 0.005 ± 0.011 | 0.0015 ± 0.021 | 0.006 ± 0.0099 | 0.0085 ± 0.011 | 0.0015 ± 0.0021 | -0.005 ± 0.016 | 0.0025 ± 0.005 | -0.01 ± 0.0057 | 0.006 ± 0.011 | -0.003 ± 0.0099 | -0.011 ± 0.0014 | -0.0135 ± 0.0064 | -0.0005 ± 0.0021 | 0.0065 ± 0.016 | -0.006 ± 0.016 | -0.0155 ± 0.012 | -0.0265 ± 0.016 | -0.0075 ± 0.0021 | -0.0025 ± 0.022 | 0.0015 ± 0.011 | 0 ± 0.0099 | -0.027 ± 0.0085 | -0.002 ± 0.0014 | -0.0115 ± 0.019 | -0.0045 ± 0.0064 | 0 ± 0.033 | 0.003 ± 0.0042 | 0.0105 ± 0.0035 | -0.014 ± 0.0042 |
| lMphg:CD69 | 0.0015 ± 0.053 | -0.003 ± 0.05 | -0.0035 ± 0.054 | 0.0245 ± 0.039 | 0.0415 ± 0.083 | 0.0045 ± 0.012 | -0.037 ± 0.028 | -0.0325 ± 0.0021 | -0.0525 ± 0.015 | -0.026 ± 0.055 | 0.005 ± 0.035 | -0.003 ± 0.0071 | -0.017 ± 0.0042 | -0.0045 ± 0.042 | 0.0295 ± 0.0035 | -0.0435 ± 0.011 | 0 ± 0.013 | -0.0185 ± 0.015 | -0.016 ± 0.0071 | 0.0485 ± 0.086 | 0.0185 ± 0.054 | 0.0035 ± 0.005 | -0.0195 ± 0.005 | -0.0525 ± 0.043 | 0.009 ± 0.064 | 0.017 ± 0.033 | -0.0125 ± 0.028 | 0.006 ± 0.03 | 0.025 ± 0.023 |
